Test results as given in the supplement of paper PMC5836539.
± gives the standard deviation of the averaged measurements. This data set is noisy: repeats of one test often differ as much as different tests do.

By UniProt entry, the sequences of proteins in these tests, tags left out. Where a name states a change or a piece, a line headed by the entry shows the natural chain unless it says otherwise.
UniProt O94885: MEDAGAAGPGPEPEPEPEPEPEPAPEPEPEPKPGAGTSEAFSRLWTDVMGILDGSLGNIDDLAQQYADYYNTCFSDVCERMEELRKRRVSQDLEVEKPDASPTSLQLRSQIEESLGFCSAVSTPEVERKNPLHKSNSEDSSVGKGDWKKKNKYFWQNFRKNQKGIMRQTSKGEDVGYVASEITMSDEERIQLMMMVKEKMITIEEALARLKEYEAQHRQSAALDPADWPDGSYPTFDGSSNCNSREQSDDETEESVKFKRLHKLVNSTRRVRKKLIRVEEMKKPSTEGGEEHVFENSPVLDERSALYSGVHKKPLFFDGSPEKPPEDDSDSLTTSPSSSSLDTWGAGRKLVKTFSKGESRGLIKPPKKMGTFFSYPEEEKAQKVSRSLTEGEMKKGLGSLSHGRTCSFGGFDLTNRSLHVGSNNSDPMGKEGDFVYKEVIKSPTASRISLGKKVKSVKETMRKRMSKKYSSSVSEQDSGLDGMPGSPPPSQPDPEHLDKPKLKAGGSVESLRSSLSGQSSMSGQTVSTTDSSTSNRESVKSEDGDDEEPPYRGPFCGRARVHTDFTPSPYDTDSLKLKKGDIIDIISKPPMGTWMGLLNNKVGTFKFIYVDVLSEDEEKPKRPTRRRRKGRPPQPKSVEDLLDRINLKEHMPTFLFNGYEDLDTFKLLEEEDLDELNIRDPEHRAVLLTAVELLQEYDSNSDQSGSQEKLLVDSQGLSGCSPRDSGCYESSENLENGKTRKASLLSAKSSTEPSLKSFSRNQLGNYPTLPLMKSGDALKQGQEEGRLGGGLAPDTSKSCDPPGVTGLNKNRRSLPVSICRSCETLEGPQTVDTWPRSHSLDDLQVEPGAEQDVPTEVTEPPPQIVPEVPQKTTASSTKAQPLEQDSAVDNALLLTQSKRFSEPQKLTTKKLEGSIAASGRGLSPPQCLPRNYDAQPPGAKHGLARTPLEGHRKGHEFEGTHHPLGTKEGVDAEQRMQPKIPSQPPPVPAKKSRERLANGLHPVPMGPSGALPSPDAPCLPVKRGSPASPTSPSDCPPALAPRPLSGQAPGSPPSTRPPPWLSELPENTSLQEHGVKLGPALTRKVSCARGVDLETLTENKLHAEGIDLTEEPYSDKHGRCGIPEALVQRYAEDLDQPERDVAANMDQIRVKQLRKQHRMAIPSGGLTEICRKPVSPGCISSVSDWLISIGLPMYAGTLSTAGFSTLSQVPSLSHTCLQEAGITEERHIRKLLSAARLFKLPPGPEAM
UniProt Q9H7N4: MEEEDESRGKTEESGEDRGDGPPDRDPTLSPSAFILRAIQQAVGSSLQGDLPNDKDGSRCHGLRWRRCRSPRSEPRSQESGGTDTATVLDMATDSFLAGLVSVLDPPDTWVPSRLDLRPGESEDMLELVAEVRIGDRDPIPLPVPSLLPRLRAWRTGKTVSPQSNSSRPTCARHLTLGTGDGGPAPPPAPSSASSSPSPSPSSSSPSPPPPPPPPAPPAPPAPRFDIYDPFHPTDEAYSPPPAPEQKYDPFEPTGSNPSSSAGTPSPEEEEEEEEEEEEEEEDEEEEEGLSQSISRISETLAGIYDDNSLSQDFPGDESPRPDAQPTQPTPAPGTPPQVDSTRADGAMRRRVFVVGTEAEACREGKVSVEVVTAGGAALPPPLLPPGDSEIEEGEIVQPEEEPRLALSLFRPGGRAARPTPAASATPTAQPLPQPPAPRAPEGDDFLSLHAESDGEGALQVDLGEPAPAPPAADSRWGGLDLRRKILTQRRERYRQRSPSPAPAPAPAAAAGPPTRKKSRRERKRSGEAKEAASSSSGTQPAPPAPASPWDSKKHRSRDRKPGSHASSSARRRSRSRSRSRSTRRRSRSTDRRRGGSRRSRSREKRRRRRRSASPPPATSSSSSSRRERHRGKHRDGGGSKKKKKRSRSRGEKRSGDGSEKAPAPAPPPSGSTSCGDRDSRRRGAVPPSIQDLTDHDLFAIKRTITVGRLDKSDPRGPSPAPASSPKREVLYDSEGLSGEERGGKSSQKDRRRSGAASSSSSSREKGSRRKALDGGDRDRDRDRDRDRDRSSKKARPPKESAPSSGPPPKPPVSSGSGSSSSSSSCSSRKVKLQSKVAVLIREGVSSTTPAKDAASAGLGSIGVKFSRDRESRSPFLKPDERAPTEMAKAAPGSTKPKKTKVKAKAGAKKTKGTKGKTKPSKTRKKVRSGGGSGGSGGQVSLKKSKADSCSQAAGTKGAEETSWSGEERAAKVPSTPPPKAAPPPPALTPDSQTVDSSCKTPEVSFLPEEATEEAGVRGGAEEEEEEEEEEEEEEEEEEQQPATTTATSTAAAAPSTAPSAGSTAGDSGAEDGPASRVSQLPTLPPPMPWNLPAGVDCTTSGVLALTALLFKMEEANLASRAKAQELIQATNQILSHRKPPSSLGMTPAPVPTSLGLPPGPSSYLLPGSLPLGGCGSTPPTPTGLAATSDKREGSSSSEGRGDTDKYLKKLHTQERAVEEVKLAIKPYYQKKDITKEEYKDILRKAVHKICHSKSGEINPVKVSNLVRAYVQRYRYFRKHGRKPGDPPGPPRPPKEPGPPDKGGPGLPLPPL
UniProt Q13435: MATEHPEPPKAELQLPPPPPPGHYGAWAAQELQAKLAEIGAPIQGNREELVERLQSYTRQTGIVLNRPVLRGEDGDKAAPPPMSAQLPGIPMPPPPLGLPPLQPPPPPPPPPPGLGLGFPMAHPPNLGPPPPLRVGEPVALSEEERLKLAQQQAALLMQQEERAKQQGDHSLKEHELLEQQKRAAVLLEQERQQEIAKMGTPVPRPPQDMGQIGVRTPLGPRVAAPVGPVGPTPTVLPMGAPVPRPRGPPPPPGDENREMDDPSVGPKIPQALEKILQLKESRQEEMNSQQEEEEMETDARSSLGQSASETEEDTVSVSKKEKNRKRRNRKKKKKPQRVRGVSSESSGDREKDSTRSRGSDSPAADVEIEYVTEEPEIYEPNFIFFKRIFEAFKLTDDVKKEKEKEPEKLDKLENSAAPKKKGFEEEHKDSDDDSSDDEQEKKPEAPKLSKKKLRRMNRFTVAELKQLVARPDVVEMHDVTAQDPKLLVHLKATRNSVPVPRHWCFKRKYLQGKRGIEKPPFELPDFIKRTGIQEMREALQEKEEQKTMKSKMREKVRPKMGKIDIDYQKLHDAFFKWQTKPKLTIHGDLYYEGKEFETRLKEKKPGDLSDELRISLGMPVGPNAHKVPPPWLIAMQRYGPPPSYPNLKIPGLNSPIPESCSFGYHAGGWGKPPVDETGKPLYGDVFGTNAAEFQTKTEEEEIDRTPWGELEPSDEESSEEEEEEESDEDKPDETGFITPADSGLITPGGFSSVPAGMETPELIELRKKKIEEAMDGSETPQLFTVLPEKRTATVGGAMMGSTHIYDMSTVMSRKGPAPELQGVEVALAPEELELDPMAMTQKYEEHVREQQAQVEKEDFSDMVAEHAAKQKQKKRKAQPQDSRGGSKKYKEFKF
UniProt O75643, whole entry: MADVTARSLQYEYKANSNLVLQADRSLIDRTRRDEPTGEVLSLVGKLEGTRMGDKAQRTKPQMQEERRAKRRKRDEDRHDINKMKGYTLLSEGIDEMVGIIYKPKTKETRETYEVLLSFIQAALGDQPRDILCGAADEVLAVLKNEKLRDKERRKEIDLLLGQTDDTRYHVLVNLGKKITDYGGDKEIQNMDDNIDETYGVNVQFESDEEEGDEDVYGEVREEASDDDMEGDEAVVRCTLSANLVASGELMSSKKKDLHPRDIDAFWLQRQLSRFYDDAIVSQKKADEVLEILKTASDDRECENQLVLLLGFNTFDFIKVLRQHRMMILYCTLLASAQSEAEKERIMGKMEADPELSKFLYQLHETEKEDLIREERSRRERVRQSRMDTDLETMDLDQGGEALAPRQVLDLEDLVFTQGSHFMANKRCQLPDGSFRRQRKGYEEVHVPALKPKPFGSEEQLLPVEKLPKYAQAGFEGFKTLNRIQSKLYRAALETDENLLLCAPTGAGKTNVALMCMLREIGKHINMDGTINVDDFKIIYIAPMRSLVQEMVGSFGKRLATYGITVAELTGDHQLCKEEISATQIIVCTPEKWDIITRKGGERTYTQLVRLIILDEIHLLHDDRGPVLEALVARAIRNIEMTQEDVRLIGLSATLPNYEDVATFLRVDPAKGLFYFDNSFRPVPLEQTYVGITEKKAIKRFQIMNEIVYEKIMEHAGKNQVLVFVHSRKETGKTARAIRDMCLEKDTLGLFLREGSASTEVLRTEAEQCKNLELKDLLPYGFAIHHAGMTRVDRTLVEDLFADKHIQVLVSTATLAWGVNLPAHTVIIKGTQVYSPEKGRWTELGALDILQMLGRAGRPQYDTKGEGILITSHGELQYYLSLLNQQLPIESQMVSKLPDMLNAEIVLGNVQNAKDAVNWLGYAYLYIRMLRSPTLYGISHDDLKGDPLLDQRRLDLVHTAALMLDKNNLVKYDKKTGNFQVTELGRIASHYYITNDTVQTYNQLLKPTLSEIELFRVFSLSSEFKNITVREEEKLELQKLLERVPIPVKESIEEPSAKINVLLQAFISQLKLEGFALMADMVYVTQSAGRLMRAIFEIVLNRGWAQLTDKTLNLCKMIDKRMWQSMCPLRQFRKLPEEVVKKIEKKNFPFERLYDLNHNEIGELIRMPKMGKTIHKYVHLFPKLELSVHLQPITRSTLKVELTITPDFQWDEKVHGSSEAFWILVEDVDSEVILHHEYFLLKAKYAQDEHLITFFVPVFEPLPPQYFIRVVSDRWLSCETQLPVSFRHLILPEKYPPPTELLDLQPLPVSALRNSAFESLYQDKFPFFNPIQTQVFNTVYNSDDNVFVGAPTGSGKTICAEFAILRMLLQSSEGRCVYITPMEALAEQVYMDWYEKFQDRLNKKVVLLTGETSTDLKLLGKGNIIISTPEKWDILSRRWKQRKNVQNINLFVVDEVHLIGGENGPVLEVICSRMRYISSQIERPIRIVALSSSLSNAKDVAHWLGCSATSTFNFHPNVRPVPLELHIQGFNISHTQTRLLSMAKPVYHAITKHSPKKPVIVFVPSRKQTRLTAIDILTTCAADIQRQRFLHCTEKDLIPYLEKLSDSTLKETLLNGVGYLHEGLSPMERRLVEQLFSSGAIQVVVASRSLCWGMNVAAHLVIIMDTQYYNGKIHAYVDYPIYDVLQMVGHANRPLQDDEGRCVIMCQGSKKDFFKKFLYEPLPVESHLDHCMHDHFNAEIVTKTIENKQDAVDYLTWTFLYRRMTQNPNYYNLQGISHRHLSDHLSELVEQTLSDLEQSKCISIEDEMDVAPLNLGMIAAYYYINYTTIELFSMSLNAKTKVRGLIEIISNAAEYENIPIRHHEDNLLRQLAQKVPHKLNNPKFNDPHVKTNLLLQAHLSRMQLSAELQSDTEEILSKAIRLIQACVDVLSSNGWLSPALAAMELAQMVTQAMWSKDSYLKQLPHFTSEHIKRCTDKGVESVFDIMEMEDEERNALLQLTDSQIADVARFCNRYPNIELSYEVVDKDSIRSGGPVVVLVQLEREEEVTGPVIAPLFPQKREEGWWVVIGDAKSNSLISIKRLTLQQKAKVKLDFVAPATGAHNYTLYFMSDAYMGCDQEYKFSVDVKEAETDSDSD
UniProt P23497: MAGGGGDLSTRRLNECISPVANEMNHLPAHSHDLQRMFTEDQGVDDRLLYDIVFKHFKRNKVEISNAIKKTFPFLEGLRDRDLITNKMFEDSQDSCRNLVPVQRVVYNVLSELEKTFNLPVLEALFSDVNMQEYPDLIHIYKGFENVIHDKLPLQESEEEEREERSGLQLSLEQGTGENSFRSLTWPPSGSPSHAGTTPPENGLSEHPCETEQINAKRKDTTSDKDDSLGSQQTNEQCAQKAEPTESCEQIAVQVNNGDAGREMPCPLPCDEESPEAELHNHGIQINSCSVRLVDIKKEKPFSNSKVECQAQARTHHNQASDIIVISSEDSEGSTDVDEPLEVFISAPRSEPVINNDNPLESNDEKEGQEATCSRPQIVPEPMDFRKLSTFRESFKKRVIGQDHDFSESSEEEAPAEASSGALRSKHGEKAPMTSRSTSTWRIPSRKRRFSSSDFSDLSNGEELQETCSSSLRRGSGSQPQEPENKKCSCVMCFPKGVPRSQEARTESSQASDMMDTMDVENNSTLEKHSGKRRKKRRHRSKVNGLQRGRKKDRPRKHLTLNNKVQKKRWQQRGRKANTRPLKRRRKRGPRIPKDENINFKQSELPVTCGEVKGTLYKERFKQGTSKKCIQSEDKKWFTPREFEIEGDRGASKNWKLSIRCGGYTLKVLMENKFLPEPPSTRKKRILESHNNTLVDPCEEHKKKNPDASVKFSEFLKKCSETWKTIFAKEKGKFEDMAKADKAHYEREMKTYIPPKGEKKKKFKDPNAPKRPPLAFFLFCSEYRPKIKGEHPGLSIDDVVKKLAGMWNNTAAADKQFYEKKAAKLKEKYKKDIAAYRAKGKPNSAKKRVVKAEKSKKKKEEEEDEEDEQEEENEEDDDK

Compound: CC[C@@H](C)Nc1cc(C(=O)N[C@H]2C[C@H]3CC[C@@H](C2)N3c2ccc(C(=O)C3CC3)cn2)c(C)cc1C(N)=O [XL888]
Experiment: phosphopeptide melting temperature shift (XL888 minus DMSO); higher = stabilised by drug treatment
Settings: 100 µM; treatment time 2 h; layout: intact cells; SK-Mel 28
Description: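 Phospho-TPP in intact SK-Mel 28 cells treated with 100 uM XL888 or DMSO for 2 h, heated at 10 temperatures (37-67 C) for 3 min, soluble fraction TMT10plex-labelled and TiO2 phospho-enriched. Melting curves were fitted per phosphopeptide; the value is the melting point difference (drug minus vehicle) in each of two biological replicates.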

For “RECQL phosphosite_608 (phosphosite position: 608) (UniProt P46063)”, the “phosphopeptide melting temperature shift” value was 0.464 ± 0.81 °C.
In the case of “REEP3 phosphosite_210 (phosphosite position: 210) (UniProt Q6NUK4)”, the “phosphopeptide melting temperature shift” value is reported as -0.326 °C.
For “REEP4 phosphosite_152 (phosphosite position: 152) (UniProt Q9H6H4)”, the “phosphopeptide melting temperature shift” value was 0.826 ± 0.71 °C.
For “RNF113A phosphosite_84 (phosphosite position: 84) (UniProt O15541)”, the “phosphopeptide melting temperature shift” value was -0.927 ± 0.83 °C.
With “RNF113A phosphosite_85 (phosphosite position: 85) (UniProt O15541)” the “phosphopeptide melting temperature shift” value was -0.927 ± 0.83 °C.
“RPRD1B phosphosite_166 (phosphosite position: 166) (UniProt Q9NQG5)” was tested, and the “phosphopeptide melting temperature shift” value was -0.104 ± 0.39 °C.
For “RPS3A phosphosite_236 (phosphosite position: 236) (UniProt P61247)”, the “phosphopeptide melting temperature shift” value was -1.02 ± 0.98 °C.
In the case of “RPS3A phosphosite_238 (phosphosite position: 238) (UniProt P61247)”, the “phosphopeptide melting temperature shift” value is reported as -0.706 °C.
“RRAGC phosphosite_95 (phosphosite position: 95) (UniProt Q9HB90)” was tested, and the “phosphopeptide melting temperature shift” value was -3.2 ± 0.67 °C.
With “RRBP1 phosphosite_615 (phosphosite position: 615) (UniProt Q9P2E9)” the “phosphopeptide melting temperature shift” value was -0.0273 ± 0.83 °C.
“SAP30 phosphosite_131 (phosphosite position: 131) (UniProt O75446)” was tested, and the “phosphopeptide melting temperature shift” value was -0.503 °C.
“SAP30 phosphosite_138 (phosphosite position: 138) (UniProt O75446)” was tested, and the “phosphopeptide melting temperature shift” value was 0.302 °C.
With “SAP30L phosphosite_99 (phosphosite position: 99) (UniProt Q9HAJ7)” the “phosphopeptide melting temperature shift” value was 1.37 °C.
For “SART1 phosphosite_448 (phosphosite position: 448) (UniProt O43290)”, the “phosphopeptide melting temperature shift” value was 3.43 °C.
In the case of “SASH1 phosphosite_699 (phosphosite position: 699) (UniProt O94885)”, the “phosphopeptide melting temperature shift” value is reported as -1.45 °C.
In the case of “SASH1 phosphosite_721 (phosphosite position: 721) (UniProt O94885)”, the “phosphopeptide melting temperature shift” value is reported as 1.23 ± 0.79 °C.
With “SASH1 phosphosite_813 (phosphosite position: 813) (UniProt O94885)” the “phosphopeptide melting temperature shift” value was -0.538 °C.
“SASH1 phosphosite_1028 (phosphosite position: 1028) (UniProt O94885)” was tested, and the “phosphopeptide melting temperature shift” value was 3.731 ± 0.025 °C.
“SASH1 phosphosite_1051 (phosphosite position: 1051) (UniProt O94885)” was tested, and the “phosphopeptide melting temperature shift” value was -1.15 °C.
“SCAF1 phosphosite_239 (phosphosite position: 239) (UniProt Q9H7N4)” was tested, and the “phosphopeptide melting temperature shift” value was -0.74 ± 2.5 °C.
For “SCAF1 phosphosite_498 (phosphosite position: 498) (UniProt Q9H7N4)”, the “phosphopeptide melting temperature shift” value was 4.02 °C.
With “SCAF1 phosphosite_500 (phosphosite position: 500) (UniProt Q9H7N4)” the “phosphopeptide melting temperature shift” value was 4.02 °C.
For “SEC62 phosphosite_158 (phosphosite position: 158) (UniProt Q99442)”, the “phosphopeptide melting temperature shift” value was -0.143 °C.
In the case of “SF3A1 phosphosite_359 (phosphosite position: 359) (UniProt Q15459)”, the “phosphopeptide melting temperature shift” value is reported as 1.08 ± 1.2 °C.
“SF3B2 phosphosite_431 (phosphosite position: 431) (UniProt Q13435)” was tested, and the “phosphopeptide melting temperature shift” value was 4.51 °C.
For “SF3B2 phosphosite_435 (phosphosite position: 435) (UniProt Q13435)”, the “phosphopeptide melting temperature shift” value was 4.51 °C.
For “SF3B2 phosphosite_436 (phosphosite position: 436) (UniProt Q13435)”, the “phosphopeptide melting temperature shift” value was 4.51 °C.
With “SH3BP1 phosphosite_262 (phosphosite position: 262) (UniProt Q9Y3L3)” the “phosphopeptide melting temperature shift” value was 0.876 ± 0.61 °C.
For “SH3BP1 phosphosite_544 (phosphosite position: 544) (UniProt Q9Y3L3)”, the “phosphopeptide melting temperature shift” value was 4.94 °C.
In the case of “SH3PXD2B phosphosite_293 (phosphosite position: 293) (UniProt A1X283)”, the “phosphopeptide melting temperature shift” value is reported as 2.59 °C.
In the case of “SLC4A1AP phosphosite_312 (phosphosite position: 312) (UniProt Q9BWU0)”, the “phosphopeptide melting temperature shift” value is reported as -0.103 ± 0.28 °C.
For “SLC4A1AP phosphosite_712 (phosphosite position: 712) (UniProt Q9BWU0)”, the “phosphopeptide melting temperature shift” value was 1.86 ± 1.1 °C.
In the case of “SLC9A3R1 phosphosite_269 (phosphosite position: 269) (UniProt O14745)”, the “phosphopeptide melting temperature shift” value is reported as 3.47 °C.
For “SMARCAD1 phosphosite_211 (phosphosite position: 211) (UniProt Q9H4L7)”, the “phosphopeptide melting temperature shift” value was 0.57 °C.
For “SMARCAD1 phosphosite_212 (phosphosite position: 212) (UniProt Q9H4L7)”, the “phosphopeptide melting temperature shift” value was 0.57 °C.
With “SMARCC1 phosphosite_328 (phosphosite position: 328) (UniProt Q92922)” the “phosphopeptide melting temperature shift” value was 1.65 ± 2.4 °C.
For “SMARCC1 phosphosite_330 (phosphosite position: 330) (UniProt Q92922)”, the “phosphopeptide melting temperature shift” value was 1.65 ± 2.4 °C.
For “SMARCC2 phosphosite_302 (phosphosite position: 302) (UniProt Q8TAQ2)”, the “phosphopeptide melting temperature shift” value was 1.07 °C.
In the case of “SMARCC2 phosphosite_304 (phosphosite position: 304) (UniProt Q8TAQ2)”, the “phosphopeptide melting temperature shift” value is reported as 1.07 °C.
With “SMC3 phosphosite_1067 (phosphosite position: 1067) (UniProt Q9UQE7)” the “phosphopeptide melting temperature shift” value was -0.534 ± 0.43 °C.
With “SNRNP200 phosphosite_225 (phosphosite position: 225) (UniProt O75643)” the “phosphopeptide melting temperature shift” value was 0.297 °C.
“SNX2 phosphosite_119 (phosphosite position: 119) (UniProt O60749)” was tested, and the “phosphopeptide melting temperature shift” value was -1.32 ± 0.71 °C.
“SNX5 phosphosite_22 (phosphosite position: 22) (UniProt Q9Y5X3)” was tested, and the “phosphopeptide melting temperature shift” value was 2.03 ± 0.86 °C.
For “SNX8 phosphosite_452 (phosphosite position: 452) (UniProt Q9Y5X2)”, the “phosphopeptide melting temperature shift” value was 1.89 °C.
In the case of “SNX8 phosphosite_456 (phosphosite position: 456) (UniProt Q9Y5X2)”, the “phosphopeptide melting temperature shift” value is reported as 2.88 °C.
With “SNX30 phosphosite_40 (phosphosite position: 40) (UniProt Q5VWJ9)” the “phosphopeptide melting temperature shift” value was 1.27 °C.
In the case of “SOD1 phosphosite_99 (phosphosite position: 99) (UniProt P00441)”, the “phosphopeptide melting temperature shift” value is reported as 0.501 ± 0.64 °C.
For “SOD1 phosphosite_108 (phosphosite position: 108) (UniProt P00441)”, the “phosphopeptide melting temperature shift” value was 1.4 °C.
With “SOX13 phosphosite_386 (phosphosite position: 386) (UniProt Q9UN79)” the “phosphopeptide melting temperature shift” value was 2.07 °C.
“SP100 phosphosite_18 (phosphosite position: 18) (UniProt P23497)” was tested, and the “phosphopeptide melting temperature shift” value was 1.82 °C.
“SP100 phosphosite_362 (phosphosite position: 362) (UniProt P23497)” was tested, and the “phosphopeptide melting temperature shift” value was 4.12 °C.
With “SP100 phosphosite_409 (phosphosite position: 409) (UniProt P23497)” the “phosphopeptide melting temperature shift” value was 2.94 ± 1.4 °C.
In the case of “SPAG9 phosphosite_109 (phosphosite position: 109) (UniProt O60271)”, the “phosphopeptide melting temperature shift” value is reported as 0.591 ± 0.6 °C.
